Article PMC4762426
No constants are given. Whether binding was seen depends on the method and setting. In cells and extracts the contact can be indirect. Some entries that bind do so weakly or less than the wild type.

Amino acid sequences for entries named in this document (tags omitted).
UniProt Q6ZW49: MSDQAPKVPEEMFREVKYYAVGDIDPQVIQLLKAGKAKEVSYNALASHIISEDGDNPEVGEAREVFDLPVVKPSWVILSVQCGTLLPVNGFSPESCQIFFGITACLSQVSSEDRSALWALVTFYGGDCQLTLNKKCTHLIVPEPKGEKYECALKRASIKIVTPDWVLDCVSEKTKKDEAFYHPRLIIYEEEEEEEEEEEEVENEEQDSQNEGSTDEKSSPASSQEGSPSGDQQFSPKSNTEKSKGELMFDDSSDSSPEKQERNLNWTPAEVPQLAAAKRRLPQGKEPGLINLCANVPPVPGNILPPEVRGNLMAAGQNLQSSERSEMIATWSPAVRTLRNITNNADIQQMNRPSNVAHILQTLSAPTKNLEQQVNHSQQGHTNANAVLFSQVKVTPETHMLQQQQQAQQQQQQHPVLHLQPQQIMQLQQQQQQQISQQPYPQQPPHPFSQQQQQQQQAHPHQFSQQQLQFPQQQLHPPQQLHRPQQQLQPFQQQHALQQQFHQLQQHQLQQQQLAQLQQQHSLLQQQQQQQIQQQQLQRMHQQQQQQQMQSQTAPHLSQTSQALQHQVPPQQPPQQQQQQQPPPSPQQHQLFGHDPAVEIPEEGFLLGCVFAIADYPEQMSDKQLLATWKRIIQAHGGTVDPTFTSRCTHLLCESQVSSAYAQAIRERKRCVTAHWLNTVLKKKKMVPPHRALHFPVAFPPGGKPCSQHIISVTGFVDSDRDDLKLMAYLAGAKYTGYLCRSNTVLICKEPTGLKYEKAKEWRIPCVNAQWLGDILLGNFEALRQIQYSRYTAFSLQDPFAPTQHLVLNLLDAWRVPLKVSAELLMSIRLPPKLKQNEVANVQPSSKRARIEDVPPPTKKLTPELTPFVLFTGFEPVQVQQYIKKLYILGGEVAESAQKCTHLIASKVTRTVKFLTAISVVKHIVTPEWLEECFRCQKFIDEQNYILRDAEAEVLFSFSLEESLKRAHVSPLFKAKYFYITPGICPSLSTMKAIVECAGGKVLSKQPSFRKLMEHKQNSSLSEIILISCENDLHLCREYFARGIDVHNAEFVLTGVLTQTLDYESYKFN
UniProt O94762: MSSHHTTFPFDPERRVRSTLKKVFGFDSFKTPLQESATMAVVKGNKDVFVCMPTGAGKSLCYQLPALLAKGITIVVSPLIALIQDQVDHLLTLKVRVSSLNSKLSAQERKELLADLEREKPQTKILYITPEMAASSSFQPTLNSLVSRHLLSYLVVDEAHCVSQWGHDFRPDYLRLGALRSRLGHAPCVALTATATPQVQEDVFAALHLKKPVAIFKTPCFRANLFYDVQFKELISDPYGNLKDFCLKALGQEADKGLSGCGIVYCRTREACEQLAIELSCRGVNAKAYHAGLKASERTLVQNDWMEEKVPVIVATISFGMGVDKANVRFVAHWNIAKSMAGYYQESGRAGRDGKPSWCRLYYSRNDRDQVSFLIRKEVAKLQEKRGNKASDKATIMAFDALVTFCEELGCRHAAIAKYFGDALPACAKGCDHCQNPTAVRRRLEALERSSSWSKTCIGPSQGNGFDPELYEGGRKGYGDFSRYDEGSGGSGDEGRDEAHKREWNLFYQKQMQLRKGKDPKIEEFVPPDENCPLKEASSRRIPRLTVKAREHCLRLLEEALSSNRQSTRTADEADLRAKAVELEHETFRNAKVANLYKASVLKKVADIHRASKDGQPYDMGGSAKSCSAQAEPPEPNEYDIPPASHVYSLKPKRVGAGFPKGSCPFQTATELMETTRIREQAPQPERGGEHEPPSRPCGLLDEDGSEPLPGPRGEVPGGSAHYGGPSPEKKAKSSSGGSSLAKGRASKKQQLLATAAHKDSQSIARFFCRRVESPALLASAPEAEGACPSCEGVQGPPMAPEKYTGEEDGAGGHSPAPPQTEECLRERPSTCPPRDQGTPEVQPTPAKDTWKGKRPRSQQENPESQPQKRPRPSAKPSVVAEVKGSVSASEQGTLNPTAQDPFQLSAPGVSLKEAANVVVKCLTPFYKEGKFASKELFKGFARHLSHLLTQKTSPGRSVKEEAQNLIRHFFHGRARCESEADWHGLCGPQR

Target: MLL2-Flag (human) (UniProt O14686)
Assay: co-IP; MLL2-Flag immunoprecipitation from HCT116 nuclear extracts (Episeeker kit) treated with benzonase; Western blotting; parental cells without MLL2-Flag as control

binding	Substance
binds	PTIP (from UniProt Q6ZW49 1-1069)
binds	RECQL5 (endogenous, HCT116) (from UniProt O94762 1-991)
